Source: patent US5223526A, “Pyrazole carboxanilide fungicides and use” (Monsanto Company, priority 1992, dated 1993)
Some results were stated once for a whole list of compounds, not compound by compound.

System: Botrytis
Test: Field tests, vineyards
Format: in vivo
Conditions: 0.01 to 2.0 kg active ingredient per hectare

SMILES | incidence of Botrytis compared to untreated fields
Cc1nn(C)cc1C(=O)Nc1ccccc1C1CCCC1 [Example 6, 1H-pyrazole-4-carboxamide, N-(2-cyclopentylphenyl)-1,3-dimethyl-] | reduce the incidence of Botrytis compared to untreated fields
Cc1nn(C)cc1C(=O)Nc1ccccc1C1CCCCC1 [Example 3, 1H-pyrazole-4-carboxamide, N-(2-cyclohexylphenyl)-1,3-dimethyl-] | reduce the incidence of Botrytis compared to untreated fields
Cn1cc(C(=O)Nc2ccccc2C2=CCOCC2)c(C(F)F)n1 [Example 104, 1H-pyrazole-4-carboxamide, 3-(difluoromethyl)-N-[2-(5,6-dihydro-2H-pyran-4-yl)phenyl]-1-methyl-] | reduce the incidence of Botrytis compared to untreated fields
Cn1cc(C(=O)Nc2ccccc2C2=CCCCCCC2)c(C(F)(F)F)n1 [Example 120, 1H-pyrazole-4-carboxamide, N-[2-(1-cycloocten-1-yl)phenyl]-1-methyl-3-(trifluoromethyl)-] | reduce the incidence of Botrytis compared to untreated fields
Cc1nn(C)cc1C(=O)Nc1ccccc1C1CCCCCCC1 [Example 41, 1H-pyrazole-4-carboxamide, N-(2-cyclooctylphenyl)-1,3-dimethyl-] | reduce the incidence of Botrytis compared to untreated fields
Cn1nc(C(F)(F)F)c(C(=O)Nc2ccccc2[C@@H]2C[C@H]3CC[C@@H]2C3)c1Cl (relative stereo) [Example 88, 1H-pyrazole-4-carboxamide, N-(2-bicyclo[2.2.1]hept-2-ylphenyl)-5-chloro-1-methyl-3-(trifluoromethyl)-, exo-] | reduce the incidence of Botrytis compared to untreated fields
Cn1cc(C(=O)Nc2cc(Cl)ccc2C2CCCCC2)c(C(F)F)n1 [Example 93, 1H-pyrazole-4-carboxamide, N-(5-chloro-2-cyclohexylphenyl)-3-(difluoromethyl)-1-methyl-] | reduce the incidence of Botrytis compared to untreated fields
Cn1cc(C(=O)Nc2ccccc2O[C@H]2C[C@H]3CC[C@@H]2C3)c(C(F)F)n1 (relative stereo) [Example 82, 1H-pyrazole-4-carboxamide, N-[2-(bicyclo[2.2.1]hept-2-yloxy)-phenyl]-3-(difluoromethyl)-1-methyl-, endo-] | reduce the incidence of Botrytis compared to untreated fields
Cn1cc(C(=O)Nc2ccccc2CC2CCCCCC2)c(C(F)(F)F)n1 [Example 146, 1H-pyrazole-4-carboxamide, 1-methyl-N-[2-(cycloheptylmethyl)-phenyl]-3-(trifluoromethyl)-] | reduce the incidence of Botrytis compared to untreated fields
Cn1cc(C(=O)Nc2ccccc2C2=CCCCCCC2)c(C(F)F)n1 [Example 119] | reduce the incidence of Botrytis compared to untreated fields
Cn1cc(C(=O)Nc2ccccc2C2=CCCCC2C(C)(C)C)c(C(F)(F)F)n1 (stereo not drawn) [Example 141, 1H-pyrazole-4-carboxamide, N-[2-[6-(1,1-dimethylethyl)-1-cyclohexen-1-yl]phenyl]-1-methyl-3-(trifluoromethyl)-] | reduce the incidence of Botrytis compared to untreated fields
O=C(Nc1ccccc1C1CCCCC1)c1cn(C(F)F)nc1C(F)F [Example 61, 1H-pyrazole-4-carboxamide, N-(2-cyclohexylphenyl)-1,3-bis(difluoromethyl)-] | reduce the incidence of Botrytis compared to untreated fields
Cn1cc(C(=O)Nc2ccc(F)cc2C2(C)CCCCC2)c(C(F)F)n1 [Example 95, 1H-pyrazole-4-carboxamide, 3-(difluoromethyl)-N-[4-fluoro-2-(1-methylcyclohexyl)phenyl]-1-methyl-] | reduce the incidence of Botrytis compared to untreated fields
Cn1cc(C(=S)Nc2ccccc2C2CCCCC2)c(C(F)F)n1 [Example 77, 1H-pyrazole-4-carbothioamide, N-(2-cyclohexylphenyl)-3-(difluoromethyl)-1-methyl] | reduce the incidence of Botrytis compared to untreated fields
COc1ccc(C2CCCCC2)c(NC(=O)c2cn(C)nc2C(F)(F)F)c1 [Example 32, 1H-pyrazole-4-carboxamide, N-(2-cyclohexyl-5-methoxyphenyl)-1-methyl-3-(trifluoromethyl)-] | reduce the incidence of Botrytis compared to untreated fields
Cn1cc(C(=O)Nc2ccccc2OC2CCCCC2)c(C(F)(F)F)n1 [Example 23, 1H-pyrazole-4-carboxamide, N-[2-(cyclohexyloxy)phenyl]-1-methyl-3-(trifluoromethyl)-] | reduce the incidence of Botrytis compared to untreated fields
Cn1cc(C(=O)Nc2ccccc2C2CCCC2)c(C(F)F)n1 [Example 7, 1H-pyrazole-4-carboxamide, N-(2-cyclopentylphenyl)-3-(difluoromethyl)-1-methyl-] | reduce the incidence of Botrytis compared to untreated fields

SMILES | incidence of Botrytis compared to untreated fields
Cn1cc(C(=O)Nc2ccccc2OC2(C)CCCC2)c(C(F)(F)F)n1 [Example 36, 1H-pyrazole-4-carboxamide, 1-methyl-N-[2-(1-methylcyclopentyloxy)phenyl]-3-(trifluoromethyl)-] | reduce the incidence of Botrytis compared to untreated fields
Cn1cc(C(=O)Nc2ccccc2C2CCCCC2)c(C#N)n1 [Example 4, 1H-pyrazole-4-carboxamide, 3-cyano-N-(2-cyclohexylphenyl)-1-methyl-] | reduce the incidence of Botrytis compared to untreated fields
CC(C)C1=C(c2ccccc2NC(=O)c2cn(C)nc2C(F)(F)F)CCCC1 [Example 128, 1H-pyrazole-4-carboxamide, N-[2-[2-(1-methylethyl)-1-cyclohexen-1-yl]phenyl]-1-methyl-3-(trifluoromethyl)-] | reduce the incidence of Botrytis compared to untreated fields
Cn1cc(C(=O)Nc2ccccc2C2CCCCCC2)c(OC(F)F)n1 [Example 60] | reduce the incidence of Botrytis compared to untreated fields
Cn1cc(C(=O)Nc2ccccc2C2CCC(C(C)(C)C)CC2)c(C(F)(F)F)n1 (stereo not drawn) [Example 135, 1H-pyrazole-4-carboxamide, N-[2-[4-(1,1-dimethylethyl)cyclohexyl]-phenyl]-1-methyl-3-(trifluoromethyl)-] | reduce the incidence of Botrytis compared to untreated fields
Cn1cc(C(=O)Nc2ccccc2C=C2CCCCCC2)c(C(F)(F)F)n1 [Example 143, 1H-pyrazole-4-carboxamide, N-[2-(cycloheptylidenemethyl)phenyl]-1-methyl-3-(trifluoromethyl)-] | reduce the incidence of Botrytis compared to untreated fields
CC(c1ccccc1NC(=O)c1cn(C)nc1C(F)(F)F)C1CCCC1 (stereo not drawn) [Example 53, 1H-pyrazole-4-carboxamide, N-[2-(1-cyclopentylethyl)phenyl]-1-methyl-3-(trifluoromethyl)-] | reduce the incidence of Botrytis compared to untreated fields
Cn1cc(C(=O)Nc2ccccc2[C@@H]2C[C@H]3CC[C@@H]2C3)c(C(F)(F)Cl)n1 (relative stereo) [Example 91, 1H-pyrazole-4-carboxamide, N-[2-bicyclo[2.2.1]hept-2-ylphenyl]-3-(chlorodifluoromethyl)-1-methyl-, exo-] | reduce the incidence of Botrytis compared to untreated fields
Cn1cc(C(=O)Nc2ccccc2C2CC(C)(C)CC(C)(C)C2)c(C(F)F)n1 [Example 140, 1H-pyrazole-4-carboxamide, 3-(difluoromethyl)-1-methyl-N-[2-(3,3,5,5-tetramethylcyclohexyl)-phenyl]-] | reduce the incidence of Botrytis compared to untreated fields
C=CCn1cc(C(=O)Nc2ccccc2C2CCCCC2)c(C(F)F)n1 [Example 14, 1H-pyrazole-4-carboxamide, N-(2-cyclohexylphenyl)-3-(difluoromethyl)-1-(2-propenyl)-] | reduce the incidence of Botrytis compared to untreated fields
Cn1cc(C(=O)Nc2ccccc2C2CCCC2)c(I)n1 [Example 69, 1H-pyrazole-4-carboxamide, N-(2-cyclopentylphenyl)-3-iodo-1-methy1-] | reduce the incidence of Botrytis compared to untreated fields
CCC1CC=C(c2ccccc2NC(=O)c2cn(C)nc2C(F)F)CC1 (stereo not drawn) [Example 125, 1H-pyrazole-4-carboxamide, 3-(difluoromethyl)-N-[2-(4-ethyl-1-cyclohexen-1-yl)phenyl]-1-methyl-] | reduce the incidence of Botrytis compared to untreated fields
Cn1cc(C(=O)Nc2ccccc2C2CCCCCC2)c(Cl)n1 [Example 51, 1H-pyrazole-4-carboxamide, 3-chloro-N-(2-cycloheptylphenyl)-1-methyl-] | reduce the incidence of Botrytis compared to untreated fields
Cn1nc(C(F)(F)F)c(C(=O)Nc2ccccc2C2CCCCC2)c1F [Example 84, 1H-pyrazole-4-carboxamide, N-(2-cyclohexylphenyl)-5-fluoro-1-methyl-3-(trifluoromethyl)-] | reduce the incidence of Botrytis compared to untreated fields
Cn1cc(C(=O)Nc2ccccc2C2CCCCC2)c([N+](=O)[O-])n1 [Example 62, 1H-pyrazole-4-carboxamide, N-(2-cyclohexylphenyl]-1-methyl-3-nitro-] | reduce the incidence of Botrytis compared to untreated fields
CC(C)C1CCCC=C1c1ccccc1NC(=O)c1cn(C)nc1C(F)(F)F (stereo not drawn) [Example 131, 1H-pyrazole-4-carboxamide, 1-methyl-N-[2-[6-(1-methylethyl)-1-cyclohexen-1-yl]phenyl]-3-(trifluoromethyl)-] | reduce the incidence of Botrytis compared to untreated fields
